The results in this text go back to paper PMC9935399.

Amino acid sequences for entries named in this document (tags omitted).
UniProt Q9BUH6: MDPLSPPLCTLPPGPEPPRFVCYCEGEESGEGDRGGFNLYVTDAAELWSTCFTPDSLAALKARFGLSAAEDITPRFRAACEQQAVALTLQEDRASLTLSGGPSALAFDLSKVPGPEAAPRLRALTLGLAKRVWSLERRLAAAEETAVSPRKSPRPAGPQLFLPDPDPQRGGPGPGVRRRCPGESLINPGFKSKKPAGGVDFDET
UniProt P11387: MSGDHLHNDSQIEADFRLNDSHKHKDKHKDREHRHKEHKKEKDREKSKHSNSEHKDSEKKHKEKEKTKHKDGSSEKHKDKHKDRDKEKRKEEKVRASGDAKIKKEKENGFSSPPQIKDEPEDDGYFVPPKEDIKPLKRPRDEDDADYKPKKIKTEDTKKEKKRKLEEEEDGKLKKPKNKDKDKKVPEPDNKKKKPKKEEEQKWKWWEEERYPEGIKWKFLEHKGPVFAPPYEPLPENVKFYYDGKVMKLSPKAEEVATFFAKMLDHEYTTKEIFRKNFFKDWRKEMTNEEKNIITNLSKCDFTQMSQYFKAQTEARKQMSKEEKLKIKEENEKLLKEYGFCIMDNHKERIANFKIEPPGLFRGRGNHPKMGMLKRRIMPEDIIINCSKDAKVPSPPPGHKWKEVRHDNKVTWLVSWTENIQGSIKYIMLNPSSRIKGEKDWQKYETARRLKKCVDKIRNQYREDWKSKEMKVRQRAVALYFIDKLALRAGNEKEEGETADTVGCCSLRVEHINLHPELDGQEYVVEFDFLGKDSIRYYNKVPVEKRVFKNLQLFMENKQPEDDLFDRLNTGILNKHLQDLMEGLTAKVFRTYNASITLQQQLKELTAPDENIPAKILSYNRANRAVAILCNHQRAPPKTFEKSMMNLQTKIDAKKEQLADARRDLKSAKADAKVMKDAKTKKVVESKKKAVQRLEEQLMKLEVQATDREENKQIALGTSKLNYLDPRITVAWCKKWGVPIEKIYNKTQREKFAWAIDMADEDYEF
UniProt P12956: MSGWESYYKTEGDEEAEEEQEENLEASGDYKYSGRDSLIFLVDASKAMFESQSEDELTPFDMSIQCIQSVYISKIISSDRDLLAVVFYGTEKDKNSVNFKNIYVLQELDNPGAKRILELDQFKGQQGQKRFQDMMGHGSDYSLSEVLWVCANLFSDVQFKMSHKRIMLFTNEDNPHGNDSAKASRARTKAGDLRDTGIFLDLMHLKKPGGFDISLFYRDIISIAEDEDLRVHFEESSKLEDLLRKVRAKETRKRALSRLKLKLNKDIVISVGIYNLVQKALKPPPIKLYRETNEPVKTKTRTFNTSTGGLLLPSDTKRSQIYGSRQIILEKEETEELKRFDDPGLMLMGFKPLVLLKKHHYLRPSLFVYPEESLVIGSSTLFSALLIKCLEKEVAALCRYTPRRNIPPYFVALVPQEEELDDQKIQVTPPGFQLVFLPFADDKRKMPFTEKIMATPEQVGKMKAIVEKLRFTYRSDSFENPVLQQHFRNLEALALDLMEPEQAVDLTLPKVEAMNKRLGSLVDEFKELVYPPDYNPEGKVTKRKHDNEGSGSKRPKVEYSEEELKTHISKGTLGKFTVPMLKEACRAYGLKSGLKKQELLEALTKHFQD
UniProt Q13185: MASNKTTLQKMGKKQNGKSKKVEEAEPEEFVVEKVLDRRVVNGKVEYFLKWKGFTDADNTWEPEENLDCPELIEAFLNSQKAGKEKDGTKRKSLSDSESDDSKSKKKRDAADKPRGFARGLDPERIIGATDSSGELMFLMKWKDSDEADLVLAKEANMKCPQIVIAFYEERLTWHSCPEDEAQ

Test in all cases: co-IP; MCF7 whole cell extracts (20 mM Tris-Cl pH 8.0, 137 mM NaCl, 10% glycerol, 1% Nonidet P-40), sonicated, IP overnight at 4 °C with the indicated antibodies and protein G-Sepharose, five washes, western blot; E2-treated cells
Assay [1] deals with paralogues of XRCC4 and XLF (PAXX) (human (endogenous in MCF7)) (UniProt Q9BUH6).
The target of assay [2] is Topoisomerase I (Top1) in MCF7 cells (human (endogenous in MCF7)) (UniProt P11387).
Assay [3] deals with Ku70 (human (endogenous in MCF7)) (UniProt P12956).

No constants are given. Whether binding was seen depends on the method and setting. Binding seen in cells or lysates may run through a third protein. Some binding calls cover weakened binding; strength is not graded here.

Turning to “Topoisomerase I (Top1) in MCF7 cells (from UniProt P11387 1-765) (enzyme)”, in assay [1], the binding entry is recorded as “binds”.

On to “heterochromatin protein 1 gamma (HP1γ) (from UniProt Q13185 1-183)”, for which the binding result in assay [2] and in assay [3] was “binds” throughout.
